According to PubChem BioAssay AID192 (DTP/NCI, 2004):
The list is a part of this screen's results and no random one: it is rich in T/C values a quarter to a half above the control, in often repeated tests (any T/C) and in doses without a T/C. Other doses and runs of a compound stand elsewhere. T/C is the treated group as % of the vehicle group. Some entries give survivors of the animals treated and no T/C: the source files T/C as zero there, which appears to mark a toxic dose or a test without result, not a measured value. Some survivor counts are full or nearly so, which does not show that the dose was tolerated: survival well below the control is almost never listed, so the zero probably covers shortened survival too. Survivors were counted at the toxicity check, usually on the fifth day, unless a day is given; later deaths do not show. Schedule codes are those of the source, taken here to give the interval after Q, in days (D) or hours (H), and the number of doses after X. Some entries were tested several times; their values stand side by side, smallest first. For survival time, this PubChem deposit counts one and a half times the control or more as active, and values a quarter to a half above the control carry no call in these data; other NCI protocols may use other cut-offs. Some T/C values carry the count of animals alive at the toxicity check (mostly the fifth day); without a count, all were alive then.

System: BDF1 mice, B16 melanoma ip, median survival T/C
Assay: NCI In Vivo Anticancer Drug Screen. Data for tumor model B16 Melanoma (intraperitoneal) in B6D2F1 (BDF1) mice
Conditions: T/C endpoint: median survival time, higher T/C = longer survival
Protocol: The antitumor activity of compounds was measured in mice bearing transplantable tumors. Survival or tumor size were measured and the results are expressed as the measurement made in the treated group (T) divided by the measurement made in the vehicle treated control group (C). The tumor model used in this assay is B16 Melanoma (intraperitoneal) in B6D2F1 (BDF1) mice

[1] = dose: 200.0 mg/kg/injection, schedule: Q01DX009 (ip), vehicle: saline with Tween-80
[2] = dose: 8.0 mg/kg/injection, schedule: Q01DX009 (ip), vehicle: saline
[3] = dose: 25.0 mg/kg/injection, schedule: Q01DX009 (ip), vehicle: saline with Tween-80
[4] = dose: 50.0 mg/kg/injection, schedule: Q01DX009 (ip), vehicle: saline with Tween-80
[5] = dose: 100.0 mg/kg/injection, schedule: Q01DX009 (ip), vehicle: saline with Tween-80
[6] = dose: 200.0 mg/kg/injection, schedule: Q01DX009 (ip), vehicle: saline
[7] = dose: 400.0 mg/kg/injection, schedule: Q01DX009 (ip), vehicle: Klucel (hydroxypropylcellulose) (HPC)
[8] = dose: 400.0 mg/kg/injection, schedule: Q01DX009 (ip), vehicle: saline with Tween-80
[9] = dose: 150.0 mg/kg/injection, schedule: Q01DX009 (ip), vehicle: saline with Tween-80

CC[C@@]1(O)C(=O)OCc2c1cc1n(c2=O)Cc2cc3c(OC)cccc3nc2-1
T/C (dose: 0.2 mg/kg/injection, schedule: Q01DX009 (ip), vehicle: other): 146 % of control [9 of 10 alive] | T/C (dose: 1.0 mg/kg/injection, schedule: Q01DX009 (ip), vehicle: Klucel (hydroxypropylcellulose) (HPC)): 147 % of control [9 of 10 alive] | T/C (dose: 1.0 mg/kg/injection, schedule: Q01DX009 (ip), vehicle: carboxymethylcellulose (CMC)): 148 % of control | survivor count (dose: 1.57 mg/kg/injection, schedule: Q01DX009 (ip), vehicle: other): 10 of 10 | T/C (dose: 2.0 mg/kg/injection, schedule: Q01DX009 (ip), vehicle: carboxymethylcellulose (CMC)): 147 % of control [9 of 10 alive] | survivor count (dose: 3.13 mg/kg/injection, schedule: Q01DX009 (ip), vehicle: other): 9 of 10 | survivor count (dose: 4.0 mg/kg/injection, schedule: Q01DX009 (ip), vehicle: Klucel (hydroxypropylcellulose) (HPC)): 10 of 10 | survivor count (dose: 6.25 mg/kg/injection, schedule: Q01DX009 (ip), vehicle: other): 5 of 10 | survivor count (dose: 8.0 mg/kg/injection, schedule: Q01DX009 (ip), vehicle: Klucel (hydroxypropylcellulose) (HPC)): 9 of 10 | survivor count (dose: 8.0 mg/kg/injection, schedule: Q01DX009 (ip), vehicle: carboxymethylcellulose (CMC)): 9 of 10

Oc1ccc2ccccc2c1N=Nc1ccc(F)cc1
T/C [1]: 140 % of control

N/C(=N\O)c1cn(C2OC(CO)C(O)C2O)c2ncnc(N)c12 (centres undefined)
survivor count [2]: 6 of 6

CC1CN1c1nc(N2CC2C)nc(N2CC2C)n1 (centres undefined)
survivor count (dose: 1.0 mg/kg/injection, schedule: Q01DX009 (ip), vehicle: saline): 10 of 10 | survivor count (dose: 2.0 mg/kg/injection, schedule: Q01DX009 (ip), vehicle: saline): 10 of 10 | survivor count (dose: 4.0 mg/kg/injection, schedule: Q01DX009 (ip), vehicle: saline): 10 of 10 | survivor count [2]: 10 of 10 | survivor count (dose: 16.0 mg/kg/injection, schedule: Q01DX009 (ip), vehicle: saline with Tween-80): 3 of 10 | survivor count (dose: 16.0 mg/kg/injection, schedule: Q01DX009 (ip), vehicle: saline): 6 of 10 | survivor count (dose: 16.0 mg/kg/injection, schedule: Q04DX003 (ip), vehicle: saline): 10 of 10

COc1ccc(C(=S)N2CCN(c3ccccc3)CC2)cc1
survivor count [3]: 9 of 10 | survivor count [4]: 10 of 10 | survivor count [5]: 10 of 10

O=[N+]([O-])c1cc(Cl)c(Cl)cc1NS(=O)(=O)c1ccccc1
survivor count (dose: 600.0 mg/kg/injection, schedule: Q01DX009 (ip), vehicle: saline with Tween-80): 5 of 6

CCN(CC)C(C)CN1c2ccccc2Sc2ccccc21 (centres undefined)
survivor count [6]: 10 of 10 | survivor count (dose: 400.0 mg/kg/injection, schedule: Q01DX009 (ip), vehicle: saline): 0 of 10

O=C1C=CC(=O)c2c(Cl)ccc(O)c21
survivor count (dose: 2.5 mg/kg/injection, schedule: Q01DX009 (ip), vehicle: Klucel (hydroxypropylcellulose) (HPC)): 10 of 10 | survivor count (dose: 5.0 mg/kg/injection, schedule: Q01DX009 (ip), vehicle: Klucel (hydroxypropylcellulose) (HPC)): 10 of 10 | survivor count (dose: 10.0 mg/kg/injection, schedule: Q01DX009 (ip), vehicle: Klucel (hydroxypropylcellulose) (HPC)): 8 of 10

CCCCCCCCCCCCCCCCOc1ccc(C(=O)CC(=O)OC)cc1
survivor count [7]: 10 of 10

COc1cc(C)c(C2NC(=O)c3ccccc3N2)cc1C (centres undefined)
T/C [7]: 130 % of control

CC(=Nc1ccccc1)C1=C(O)C(Cc2ccccc2)NC1=O (centres undefined)
survivor count [3]: 10 of 10 | survivor count [4]: 10 of 10 | survivor count [1]: 1 of 10 and 7 of 10 | survivor count [8]: 0 of 10

O=C1OCCN1/N=C/c1ccc([N+](=O)[O-])o1
survivor count (dose: 200.0 mg/kg/injection, schedule: Q01DX009 (ip), vehicle: Klucel (hydroxypropylcellulose) (HPC)): 10 of 10 | survivor count [7]: 0 of 10

C[n+]1c2ccccc2cc2ccccc21
survivor count (dose: 3.13 mg/kg/injection, schedule: Q01DX009 (ip), vehicle: saline with Tween-80): 6 of 6 | survivor count (dose: 12.5 mg/kg/injection, schedule: Q01DX009 (ip), vehicle: saline with Tween-80): 6 of 6 | survivor count [3]: 6 of 6

O=c1[nH]cc(F)c(=O)n1-c1ccco1
survivor count (dose: 50.0 mg/kg/injection, schedule: Q01DX011 (ip), vehicle: saline with Tween-80): 9 of 9

O=c1ssc(=Nc2ccccc2)n1-c1ccccc1
survivor count [7]: 10 of 10

CC(=O)Oc1ccc(Nc2c3ccccc3nc3ccccc23)cc1
T/C (dose: 15.0 mg/kg/injection, schedule: Q01DX009 (ip), vehicle: saline with Tween-80): 125 and 138 % of control | T/C (dose: 20.0 mg/kg/injection, schedule: Q01DX009 (ip), vehicle: saline with Tween-80): 145 % of control | survivor count (dose: 44.0 mg/kg/injection, schedule: Q01DX009 (ip), vehicle: saline with Tween-80): 10 of 10 | survivor count (dose: 60.0 mg/kg/injection, schedule: Q01DX009 (ip), vehicle: saline with Tween-80): 9 of 10 | survivor count (dose: 66.0 mg/kg/injection, schedule: Q01DX009 (ip), vehicle: saline with Tween-80): 10 of 10 | survivor count [5]: 8 of 10 | survivor count [9]: 4 of 10

Cc1ccc(S(=O)(=O)Oc2ccc(-c3ccc(OS(=O)(=O)c4ccc(C)cc4)cc3)cc2)cc1
survivor count [1]: 10 of 10 | survivor count [8]: 10 of 10

COC1=NCN=C2SC=C(N)N=C12
T/C (dose: 12.5 mg/kg/injection, schedule: Q01DX009 (ip), vehicle: saline): 135 % of control | survivor count (dose: 50.0 mg/kg/injection, schedule: Q01DX009 (ip), vehicle: saline): 10 of 10 | survivor count (dose: 100.0 mg/kg/injection, schedule: Q01DX009 (ip), vehicle: saline): 10 of 10

NCCCN=c1ccc2c3c1c(O)c1c(O)ccc(=O)c1c3[nH]n2CCNCCO
survivor count (dose: 16.0 mg/kg/injection, schedule: Q01DX009 (ip), vehicle: water): 10 of 10

C(=C\c1cccnc1)/c1ccncc1
survivor count [9]: 5 of 10

CC(C)(C)c1ccc(CN2CCN(C(c3ccccc3)c3ccc(Cl)cc3)CC2)cc1 (centres undefined)
survivor count (dose: 0.09 mg/kg/injection, schedule: Q01DX009 (ip), vehicle: Klucel (hydroxypropylcellulose) (HPC)): 10 of 10 | survivor count (dose: 0.19 mg/kg/injection, schedule: Q01DX009 (ip), vehicle: Klucel (hydroxypropylcellulose) (HPC)): 10 of 10 | survivor count (dose: 0.78 mg/kg/injection, schedule: Q01DX009 (ip), vehicle: Klucel (hydroxypropylcellulose) (HPC)): 9 of 10 | survivor count (dose: 1.56 mg/kg/injection, schedule: Q01DX009 (ip), vehicle: Klucel (hydroxypropylcellulose) (HPC)): 10 of 10 | survivor count (dose: 3.12 mg/kg/injection, schedule: Q01DX009 (ip), vehicle: Klucel (hydroxypropylcellulose) (HPC)): 10 of 10 | survivor count (dose: 6.25 mg/kg/injection, schedule: Q01DX009 (ip), vehicle: Klucel (hydroxypropylcellulose) (HPC)): 8 of 10 | survivor count (dose: 12.5 mg/kg/injection, schedule: Q01DX009 (ip), vehicle: Klucel (hydroxypropylcellulose) (HPC)): 10 of 10 | survivor count (dose: 25.0 mg/kg/injection, schedule: Q01DX009 (ip), vehicle: Klucel (hydroxypropylcellulose) (HPC)): 9 of 10 and 10 of 10 | survivor count (dose: 50.0 mg/kg/injection, schedule: Q01DX009 (ip), vehicle: Klucel (hydroxypropylcellulose) (HPC)): 10 of 10

CN(C)CCC(=O)c1ccccc1
survivor count (dose: 25.0 mg/kg/injection, schedule: Q01DX009 (ip), vehicle: saline): 7 of 10

NC1CONC1=O (centres undefined)
survivor count (dose: 3.13 mg/kg/injection, schedule: Q01DX009 (ip), vehicle: saline): 10 of 10

OCC(O)c1ccccn1 (centres undefined)
T/C [6]: 129 % of control

COc1ccccc1NC(=O)Nc1cccc(C(C)=O)c1
survivor count [8]: 9 of 9

CCN(CC)CCNc1ccc([N+](=O)[O-])cc1[N+](=O)[O-]
survivor count (dose: 200.0 mg/kg/injection, schedule: Q04DX003 (ip), vehicle: saline with Tween-80): 6 of 9
